# Reference: the supplement of paper PMC7666118
# Protein sequences, listed by entry. Tags and fused reporters are not part of them. Lines headed by an entry give the natural chain unless they say otherwise; changes in a name come on top.
# UniProt Q9BSY4: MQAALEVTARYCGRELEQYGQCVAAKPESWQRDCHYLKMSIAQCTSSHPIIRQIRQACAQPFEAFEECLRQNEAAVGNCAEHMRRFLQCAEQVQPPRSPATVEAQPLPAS
# UniProt P42773: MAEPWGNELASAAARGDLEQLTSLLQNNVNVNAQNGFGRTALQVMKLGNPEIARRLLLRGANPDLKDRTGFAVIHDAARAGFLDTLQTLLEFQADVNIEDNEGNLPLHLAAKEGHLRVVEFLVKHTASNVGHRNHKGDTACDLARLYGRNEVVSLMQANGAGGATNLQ
# UniProt Q7LBR1: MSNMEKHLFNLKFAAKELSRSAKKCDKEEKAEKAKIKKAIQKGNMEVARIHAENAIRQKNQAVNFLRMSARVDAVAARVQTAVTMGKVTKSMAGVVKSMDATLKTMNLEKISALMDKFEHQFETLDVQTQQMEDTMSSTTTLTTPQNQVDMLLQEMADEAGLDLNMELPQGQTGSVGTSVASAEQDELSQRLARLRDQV
# UniProt Q96CT7: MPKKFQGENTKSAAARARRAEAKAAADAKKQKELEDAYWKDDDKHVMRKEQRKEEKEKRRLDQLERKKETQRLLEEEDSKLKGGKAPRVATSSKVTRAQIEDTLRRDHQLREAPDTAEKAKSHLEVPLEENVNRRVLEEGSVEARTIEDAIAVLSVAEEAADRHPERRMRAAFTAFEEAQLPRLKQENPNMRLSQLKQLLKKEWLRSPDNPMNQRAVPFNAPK
# UniProt O14735: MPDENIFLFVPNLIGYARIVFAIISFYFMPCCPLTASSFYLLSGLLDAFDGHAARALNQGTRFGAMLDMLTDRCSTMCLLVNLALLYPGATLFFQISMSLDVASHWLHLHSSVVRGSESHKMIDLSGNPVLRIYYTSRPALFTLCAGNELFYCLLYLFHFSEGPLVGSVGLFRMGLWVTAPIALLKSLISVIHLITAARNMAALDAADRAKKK
# UniProt Q8N0S6: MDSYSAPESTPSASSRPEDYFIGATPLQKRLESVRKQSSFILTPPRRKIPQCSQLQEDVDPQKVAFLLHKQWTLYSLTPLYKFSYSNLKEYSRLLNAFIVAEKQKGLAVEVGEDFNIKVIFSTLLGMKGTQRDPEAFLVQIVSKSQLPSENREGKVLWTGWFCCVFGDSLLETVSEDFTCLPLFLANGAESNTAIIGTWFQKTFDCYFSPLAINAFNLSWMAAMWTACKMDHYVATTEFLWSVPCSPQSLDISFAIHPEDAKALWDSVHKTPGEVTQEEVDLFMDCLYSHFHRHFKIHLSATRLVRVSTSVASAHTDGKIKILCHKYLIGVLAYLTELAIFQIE
# UniProt Q9HCK8: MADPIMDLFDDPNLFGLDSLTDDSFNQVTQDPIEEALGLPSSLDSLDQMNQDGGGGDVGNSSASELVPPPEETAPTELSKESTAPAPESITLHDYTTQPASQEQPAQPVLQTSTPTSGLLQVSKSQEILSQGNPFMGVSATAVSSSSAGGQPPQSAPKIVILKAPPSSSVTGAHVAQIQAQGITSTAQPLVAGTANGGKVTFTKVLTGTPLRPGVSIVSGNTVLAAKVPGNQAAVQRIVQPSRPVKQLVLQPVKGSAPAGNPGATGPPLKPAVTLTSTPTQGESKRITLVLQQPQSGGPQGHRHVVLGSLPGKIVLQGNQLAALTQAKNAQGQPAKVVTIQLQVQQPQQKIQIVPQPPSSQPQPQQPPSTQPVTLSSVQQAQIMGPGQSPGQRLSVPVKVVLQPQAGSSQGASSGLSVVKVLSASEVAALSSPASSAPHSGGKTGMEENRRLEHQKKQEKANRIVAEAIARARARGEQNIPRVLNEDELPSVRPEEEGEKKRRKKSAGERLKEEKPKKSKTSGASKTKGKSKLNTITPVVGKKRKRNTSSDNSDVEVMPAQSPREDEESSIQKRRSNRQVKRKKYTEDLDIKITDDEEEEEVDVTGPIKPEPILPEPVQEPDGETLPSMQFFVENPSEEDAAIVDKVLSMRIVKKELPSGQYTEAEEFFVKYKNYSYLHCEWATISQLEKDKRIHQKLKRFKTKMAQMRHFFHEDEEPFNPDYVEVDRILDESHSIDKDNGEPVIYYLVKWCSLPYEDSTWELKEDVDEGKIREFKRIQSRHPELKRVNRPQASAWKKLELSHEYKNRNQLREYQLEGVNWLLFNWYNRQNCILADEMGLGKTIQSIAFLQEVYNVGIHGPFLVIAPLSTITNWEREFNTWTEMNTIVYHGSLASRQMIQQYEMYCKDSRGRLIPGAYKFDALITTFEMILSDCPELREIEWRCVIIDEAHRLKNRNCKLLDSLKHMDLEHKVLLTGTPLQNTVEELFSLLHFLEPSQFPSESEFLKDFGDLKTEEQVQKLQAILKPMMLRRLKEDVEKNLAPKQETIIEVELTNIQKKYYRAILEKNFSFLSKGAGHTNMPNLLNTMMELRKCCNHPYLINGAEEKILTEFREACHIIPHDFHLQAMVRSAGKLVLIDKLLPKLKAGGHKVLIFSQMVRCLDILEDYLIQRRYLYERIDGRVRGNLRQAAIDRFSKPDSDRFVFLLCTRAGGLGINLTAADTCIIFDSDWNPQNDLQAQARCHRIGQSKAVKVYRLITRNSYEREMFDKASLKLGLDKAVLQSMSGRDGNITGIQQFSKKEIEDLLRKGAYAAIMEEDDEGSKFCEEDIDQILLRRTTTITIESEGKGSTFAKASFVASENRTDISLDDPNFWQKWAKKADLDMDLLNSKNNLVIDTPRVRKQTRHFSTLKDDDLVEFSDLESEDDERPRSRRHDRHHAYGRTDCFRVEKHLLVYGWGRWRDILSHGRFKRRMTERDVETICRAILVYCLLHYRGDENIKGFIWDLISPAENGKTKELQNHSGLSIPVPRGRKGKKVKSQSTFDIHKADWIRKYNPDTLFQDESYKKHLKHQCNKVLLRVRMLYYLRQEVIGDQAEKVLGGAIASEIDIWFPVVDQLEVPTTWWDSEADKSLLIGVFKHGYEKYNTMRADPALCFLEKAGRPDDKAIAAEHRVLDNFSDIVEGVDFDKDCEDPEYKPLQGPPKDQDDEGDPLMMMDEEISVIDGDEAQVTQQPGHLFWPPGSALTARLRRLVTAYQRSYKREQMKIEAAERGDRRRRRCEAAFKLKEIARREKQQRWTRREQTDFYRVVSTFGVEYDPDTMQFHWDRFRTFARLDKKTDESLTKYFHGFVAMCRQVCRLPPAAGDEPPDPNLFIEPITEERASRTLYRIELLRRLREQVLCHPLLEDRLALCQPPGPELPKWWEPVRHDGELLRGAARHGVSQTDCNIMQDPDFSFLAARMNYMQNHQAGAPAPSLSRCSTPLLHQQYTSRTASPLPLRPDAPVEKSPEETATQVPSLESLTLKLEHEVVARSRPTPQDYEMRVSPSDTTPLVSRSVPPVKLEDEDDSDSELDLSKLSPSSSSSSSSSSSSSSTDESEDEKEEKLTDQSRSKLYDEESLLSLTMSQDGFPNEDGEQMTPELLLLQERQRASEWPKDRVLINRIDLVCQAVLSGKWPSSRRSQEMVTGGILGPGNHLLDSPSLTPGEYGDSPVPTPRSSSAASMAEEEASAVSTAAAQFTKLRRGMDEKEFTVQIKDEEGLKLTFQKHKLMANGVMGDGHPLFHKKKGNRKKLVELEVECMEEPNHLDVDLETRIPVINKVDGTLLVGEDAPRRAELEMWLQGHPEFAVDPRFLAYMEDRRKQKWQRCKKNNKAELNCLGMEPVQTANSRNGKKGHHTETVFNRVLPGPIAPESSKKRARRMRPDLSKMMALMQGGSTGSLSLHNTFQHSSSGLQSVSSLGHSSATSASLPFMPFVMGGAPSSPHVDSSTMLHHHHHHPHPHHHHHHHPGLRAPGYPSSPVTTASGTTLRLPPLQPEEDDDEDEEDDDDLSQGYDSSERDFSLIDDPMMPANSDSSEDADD
# UniProt Q8NE86: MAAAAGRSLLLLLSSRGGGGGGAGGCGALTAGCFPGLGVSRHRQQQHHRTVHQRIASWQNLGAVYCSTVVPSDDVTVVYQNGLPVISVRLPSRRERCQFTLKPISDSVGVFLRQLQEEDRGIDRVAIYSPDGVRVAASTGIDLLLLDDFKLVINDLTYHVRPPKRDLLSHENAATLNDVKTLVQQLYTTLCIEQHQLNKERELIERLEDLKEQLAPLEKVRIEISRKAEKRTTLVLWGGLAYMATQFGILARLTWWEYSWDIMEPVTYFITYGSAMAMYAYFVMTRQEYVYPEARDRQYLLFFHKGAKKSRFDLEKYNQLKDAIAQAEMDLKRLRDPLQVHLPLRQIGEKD
# UniProt Q9NUP7: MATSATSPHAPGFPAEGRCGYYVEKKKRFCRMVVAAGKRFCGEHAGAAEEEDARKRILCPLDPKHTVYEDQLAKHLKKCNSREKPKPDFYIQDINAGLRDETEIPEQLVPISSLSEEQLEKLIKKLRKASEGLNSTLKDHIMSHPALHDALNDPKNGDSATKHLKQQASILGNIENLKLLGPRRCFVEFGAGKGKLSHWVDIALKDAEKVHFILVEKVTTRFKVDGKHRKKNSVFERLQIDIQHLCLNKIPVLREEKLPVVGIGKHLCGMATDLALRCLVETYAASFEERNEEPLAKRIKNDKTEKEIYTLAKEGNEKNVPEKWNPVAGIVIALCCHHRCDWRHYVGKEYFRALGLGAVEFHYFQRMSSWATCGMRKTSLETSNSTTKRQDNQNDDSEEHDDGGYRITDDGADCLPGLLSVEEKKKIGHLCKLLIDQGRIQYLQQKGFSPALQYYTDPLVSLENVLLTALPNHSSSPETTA
# UniProt Q9Y6K0: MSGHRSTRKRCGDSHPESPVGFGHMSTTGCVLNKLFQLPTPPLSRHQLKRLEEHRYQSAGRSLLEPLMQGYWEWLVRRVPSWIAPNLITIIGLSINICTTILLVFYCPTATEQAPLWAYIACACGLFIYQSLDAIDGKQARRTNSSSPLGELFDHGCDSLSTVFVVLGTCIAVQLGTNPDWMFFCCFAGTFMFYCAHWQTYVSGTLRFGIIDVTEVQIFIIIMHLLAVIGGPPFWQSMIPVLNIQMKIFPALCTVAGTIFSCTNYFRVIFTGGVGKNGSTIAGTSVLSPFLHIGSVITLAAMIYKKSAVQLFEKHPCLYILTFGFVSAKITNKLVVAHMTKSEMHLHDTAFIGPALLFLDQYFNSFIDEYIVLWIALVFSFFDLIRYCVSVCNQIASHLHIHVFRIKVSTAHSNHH
# UniProt Q14004, whole entry, looked up: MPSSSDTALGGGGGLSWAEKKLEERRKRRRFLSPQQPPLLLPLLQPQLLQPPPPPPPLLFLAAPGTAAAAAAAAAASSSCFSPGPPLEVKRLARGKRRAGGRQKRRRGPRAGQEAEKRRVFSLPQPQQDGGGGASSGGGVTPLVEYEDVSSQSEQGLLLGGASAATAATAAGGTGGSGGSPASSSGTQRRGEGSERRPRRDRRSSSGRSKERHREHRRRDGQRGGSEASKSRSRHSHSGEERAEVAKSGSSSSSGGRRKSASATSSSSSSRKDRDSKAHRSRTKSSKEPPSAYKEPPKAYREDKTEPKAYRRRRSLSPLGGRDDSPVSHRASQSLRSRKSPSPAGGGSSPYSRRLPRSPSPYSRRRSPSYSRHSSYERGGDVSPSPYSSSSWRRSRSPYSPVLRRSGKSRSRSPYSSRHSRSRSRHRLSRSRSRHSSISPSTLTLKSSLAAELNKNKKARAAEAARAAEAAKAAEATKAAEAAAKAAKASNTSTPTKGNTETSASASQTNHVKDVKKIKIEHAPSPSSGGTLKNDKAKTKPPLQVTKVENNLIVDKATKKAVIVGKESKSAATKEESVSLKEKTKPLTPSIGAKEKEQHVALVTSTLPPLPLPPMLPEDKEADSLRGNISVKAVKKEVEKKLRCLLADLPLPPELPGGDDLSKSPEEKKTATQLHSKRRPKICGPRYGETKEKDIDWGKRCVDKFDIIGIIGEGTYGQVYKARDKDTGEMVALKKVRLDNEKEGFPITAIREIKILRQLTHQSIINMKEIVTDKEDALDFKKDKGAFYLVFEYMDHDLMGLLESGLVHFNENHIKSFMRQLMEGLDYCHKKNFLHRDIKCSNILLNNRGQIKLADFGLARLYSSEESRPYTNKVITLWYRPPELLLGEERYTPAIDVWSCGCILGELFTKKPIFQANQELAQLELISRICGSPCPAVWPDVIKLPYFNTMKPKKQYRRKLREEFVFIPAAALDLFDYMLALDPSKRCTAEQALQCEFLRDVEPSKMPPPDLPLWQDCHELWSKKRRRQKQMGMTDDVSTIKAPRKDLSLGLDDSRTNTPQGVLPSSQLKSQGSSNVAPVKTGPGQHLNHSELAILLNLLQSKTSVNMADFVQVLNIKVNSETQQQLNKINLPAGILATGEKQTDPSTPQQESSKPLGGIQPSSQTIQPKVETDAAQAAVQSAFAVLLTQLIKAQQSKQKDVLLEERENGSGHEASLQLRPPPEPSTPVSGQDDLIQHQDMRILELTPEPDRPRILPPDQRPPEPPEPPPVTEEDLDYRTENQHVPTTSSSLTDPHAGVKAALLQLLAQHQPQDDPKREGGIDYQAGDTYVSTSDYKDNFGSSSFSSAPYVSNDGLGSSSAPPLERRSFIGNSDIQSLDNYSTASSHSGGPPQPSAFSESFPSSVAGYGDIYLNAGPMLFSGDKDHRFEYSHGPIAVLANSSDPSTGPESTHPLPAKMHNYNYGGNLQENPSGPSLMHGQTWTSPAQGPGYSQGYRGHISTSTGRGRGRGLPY
# The list shows a part of the results.
# Compound: COc1ccc(Cn2ccc3ccc(C(=O)NO)cc32)cc1
# Assay: dose-dependent thermal stabilisation call (2D-TPP, DLPTP, 10% FDR) (binary (1 = stabilised)); higher = stabilised by the compound
# Conditions: system: HL-60 intact cells; concentration range 0.04-10 µM
row,Target,dose-dependent thermal stabilisation call
1,CDS2 (UniProt O95674),inactive: 0
2,CHCHD5 (UniProt Q9BSY4),inactive: 0
3,CDKN2C (UniProt P42773),inactive: 0
4,CHMP1B (UniProt Q7LBR1),inactive: 0
5,CCDC124 (UniProt Q96CT7),inactive: 0
6,CEP55 (UniProt Q53EZ4),inactive: 0
7,CEBPE (UniProt Q15744),inactive: 0
8,CDIPT (UniProt O14735),inactive: 0
9,COG3 (UniProt Q96JB2),inactive: 0
10,CENPL (UniProt Q8N0S6),inactive: 0
11,COG5 (UniProt Q9UP83),inactive: 0
12,CD44 (UniProt P16070),inactive: 0
13,CHD8 (UniProt Q9HCK8),inactive: 0
14,CHCHD10 (UniProt Q8WYQ3),inactive: 0
15,CDC42BPA (UniProt Q5VT25),inactive: 0
16,CCNA2 (UniProt P20248),inactive: 0
17,CCNDBP1 (UniProt O95273),inactive: 0
18,CCDC109A (UniProt Q8NE86),inactive: 0
19,CCNB1 (UniProt P14635),inactive: 0
20,CD46 (UniProt P15529),inactive: 0
21,CCDC76 (UniProt Q9NUP7),active: 1
22,CDC16 (UniProt Q13042),inactive: 0
23,CEPT1 (UniProt Q9Y6K0),inactive: 0
24,CNDP2 (UniProt Q96KP4),inactive: 0
25,COL4A3BP (UniProt Q9Y5P4),inactive: 0
26,CLPTM1 (UniProt O96005),inactive: 0
27,CDC2L5 (UniProt Q14004),inactive: 0

# Reprinted at random: two entries already listed
row,Target,dose-dependent thermal stabilisation call
26,CLPTM1 (UniProt O96005),inactive: 0
2,CHCHD5 (UniProt Q9BSY4),inactive: 0
